Laboratory results reported in patent US20160200829A1.
Results are given in words; binding and its absence hold for the method and conditions named. Binding seen in cells or lysates may run through a third protein. Some binding calls cover weakened binding; strength is not graded here.

Amino acid sequences for entries named in this document (tags omitted).
UniProt Q15776: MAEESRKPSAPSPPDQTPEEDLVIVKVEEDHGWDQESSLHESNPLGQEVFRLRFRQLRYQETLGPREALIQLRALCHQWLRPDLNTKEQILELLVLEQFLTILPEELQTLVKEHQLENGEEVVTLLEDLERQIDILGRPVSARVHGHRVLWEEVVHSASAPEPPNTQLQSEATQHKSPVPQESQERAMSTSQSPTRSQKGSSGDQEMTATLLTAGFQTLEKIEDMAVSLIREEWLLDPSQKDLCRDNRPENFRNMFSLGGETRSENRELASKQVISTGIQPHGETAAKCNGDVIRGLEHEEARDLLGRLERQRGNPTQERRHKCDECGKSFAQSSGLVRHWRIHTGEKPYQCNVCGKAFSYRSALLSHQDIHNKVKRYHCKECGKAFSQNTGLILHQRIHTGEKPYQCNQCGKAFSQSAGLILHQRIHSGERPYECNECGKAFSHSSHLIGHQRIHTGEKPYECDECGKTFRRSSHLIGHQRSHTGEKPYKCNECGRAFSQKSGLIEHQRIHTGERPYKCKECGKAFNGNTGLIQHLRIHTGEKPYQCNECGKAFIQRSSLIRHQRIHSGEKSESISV
UniProt Q96GC6: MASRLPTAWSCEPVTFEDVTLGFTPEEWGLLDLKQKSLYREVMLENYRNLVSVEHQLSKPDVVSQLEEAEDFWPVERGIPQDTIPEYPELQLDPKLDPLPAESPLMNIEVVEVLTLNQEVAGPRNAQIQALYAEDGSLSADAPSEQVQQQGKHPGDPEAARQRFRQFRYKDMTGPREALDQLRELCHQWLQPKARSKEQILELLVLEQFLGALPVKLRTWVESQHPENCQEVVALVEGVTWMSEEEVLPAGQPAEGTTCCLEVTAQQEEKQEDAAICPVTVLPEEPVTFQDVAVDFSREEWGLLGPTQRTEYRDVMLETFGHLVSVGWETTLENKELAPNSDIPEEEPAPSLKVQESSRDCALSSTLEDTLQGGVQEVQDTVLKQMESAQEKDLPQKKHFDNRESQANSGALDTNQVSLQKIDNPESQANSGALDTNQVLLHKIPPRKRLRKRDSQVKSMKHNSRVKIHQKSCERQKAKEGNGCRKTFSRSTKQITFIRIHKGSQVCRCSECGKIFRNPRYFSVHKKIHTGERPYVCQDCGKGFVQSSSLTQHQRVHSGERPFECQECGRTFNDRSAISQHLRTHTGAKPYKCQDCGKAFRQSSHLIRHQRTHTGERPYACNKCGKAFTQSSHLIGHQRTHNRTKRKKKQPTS
UniProt Q13263: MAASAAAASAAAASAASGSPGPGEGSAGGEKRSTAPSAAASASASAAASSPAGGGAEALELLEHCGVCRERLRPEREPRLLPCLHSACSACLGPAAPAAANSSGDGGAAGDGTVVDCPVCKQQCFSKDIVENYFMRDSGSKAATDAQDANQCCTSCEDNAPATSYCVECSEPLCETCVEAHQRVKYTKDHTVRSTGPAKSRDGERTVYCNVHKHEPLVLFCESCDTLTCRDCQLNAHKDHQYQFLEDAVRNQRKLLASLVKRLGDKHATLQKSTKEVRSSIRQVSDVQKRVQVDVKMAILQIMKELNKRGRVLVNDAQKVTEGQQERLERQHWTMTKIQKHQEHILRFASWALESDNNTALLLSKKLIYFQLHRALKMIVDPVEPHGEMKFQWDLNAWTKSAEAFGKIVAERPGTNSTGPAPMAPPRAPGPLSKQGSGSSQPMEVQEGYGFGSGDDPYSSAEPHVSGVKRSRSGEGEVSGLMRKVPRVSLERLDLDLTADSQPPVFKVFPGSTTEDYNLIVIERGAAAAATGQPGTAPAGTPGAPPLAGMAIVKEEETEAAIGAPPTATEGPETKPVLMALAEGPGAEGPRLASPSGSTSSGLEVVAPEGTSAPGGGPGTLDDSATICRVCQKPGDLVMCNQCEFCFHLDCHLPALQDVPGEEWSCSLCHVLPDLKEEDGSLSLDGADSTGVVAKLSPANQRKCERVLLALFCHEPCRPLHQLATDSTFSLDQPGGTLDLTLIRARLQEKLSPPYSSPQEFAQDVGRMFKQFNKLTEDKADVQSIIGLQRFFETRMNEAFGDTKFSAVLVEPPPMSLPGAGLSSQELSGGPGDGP

How the values were obtained:
ZNF192/ZKSCAN8 (human) = ZNF192/ZKSCAN8 (human) (UniProt Q15776); assay: co-IP with FLAG antibody from HMLE/FLAG-KAP1 lysate, Western blot
ZNF274 (human) = ZNF274 (human) (UniProt Q96GC6); assay: as above

binding (ZNF192/ZKSCAN8 (human)): binds
binding (ZNF274 (human)): binds
Substance: FLAG-KAP1 (from UniProt Q13263 1-835)
